{
  "source": "patent US20040219189A1",
  "about": "(priority 2001, published 2004)",
  "origin": "cited, not measured here",
  "tested_on": "kainate receptors",
  "conditions": "Narita et al. 1993; cited from earlier work",
  "data": [
    {"smiles": "NCCCC(=O)O", "note": "[GABA, γ-aminobutyric acid]", "values": [
      {"measurement": "inhibition of kainate-induced running activity in rat", "result": "not inhibited"}
    ]}
  ]
}
